Data source: PubChem BioAssay AID504791 (Drosophila RNAi Screening Center, 2011)
The deposit covers about 23,000 reagents; below is an unselected part of those that have a named target and a result. Of all reagents, 199 (0.86%) were called active. 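Plate-scaled ratios behind the calls are not deposited; printed light signals are raw; many rows marked increased or decreased are still called inactive.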 A number with no mark means an inactive call. Reagents against one gene are numbered here. Names joined by + are all predicted targets of the reagent.

- Screen: 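Factors in Argonaute-based small RNA production and activity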 (primary screen)
- System: Drosophila S2-derived reporter cells
- Reagents: long dsRNA against Drosophila genes, about 150-250 ng dsRNA per well (siRNA assay); about 80-120 ng (miRNA assay)
- Time to read-out: about 5 days (siRNA assay); about 4 days (miRNA assay)
- Challenge: copper sulfate induction of reporters: 25 µM (siRNA assay); 200 mM stated (miRNA assay), 1-2 days before reading
- Measurement: 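Dual luciferase assay: Renilla to firefly signal ratio in each well, scaled to the mean ratio of its plate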
- Scale: siRNA reporter hit score: higher = 3 marks a strong hit with raised ratio; -3 a strong hit with lowered ratio
- Units: stable assay Renilla, run 1 in luminescence; stable assay firefly, run 1 in luminescence
- Call rule: 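First-pass picks had plate-scaled ratios over 1.5 for the siRNA assay, over 1.6 for the miRNA assay, or under 0.6; two distinct dsRNAs had to score alike on retest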

The opening 5 entries as a preview:
gene | reagent no. | siRNA reporter hit score | stable siRNA reporter change | miRNA reporter change | stable assay Renilla, run 1 | stable assay firefly, run 1
Lpt (Lost PHDs of trr) | 1 | – | – | – | 5606 | 4.60e5
Lpt (Lost PHDs of trr) | 2 | – | – | – | 35850 | 9.58e5
CG30065 | 1 | – | – | – | 5527 | 3.38e5
CG12499 | 1 | – | – | – | 8523 | 4.45e5
fmt (fiery mountain) | 1 | – | – | – | 8726 | 4.55e5

The list itself, from the start:
gene | reagent no. | siRNA reporter hit score | stable siRNA reporter change | miRNA reporter change | stable assay Renilla, run 1 | stable assay firefly, run 1
Lpt (Lost PHDs of trr) | 1 | – | – | – | 5606 | 4.60e5
Lpt (Lost PHDs of trr) | 2 | – | – | – | 35850 | 9.58e5
CG30065 | 1 | – | – | – | 5527 | 3.38e5
CG12499 | 1 | – | – | – | 8523 | 4.45e5
fmt (fiery mountain) | 1 | – | – | – | 8726 | 4.55e5
CG7536 | 1 | – | – | – | 7901 | 5.13e5
Ir52b (Ionotropic receptor 52b) | 1 | – | – | – | 6354 | 3.79e5
AIMP2 (aaRS-interacting multifunctional protein 2) | 1 | – | – | – | 9185 | 3.57e5
Alr (Augmenter of liver regeneration) | 1 | – | – | – | 6055 | 5.74e5
Ass + CG31286 | 1 | – | – | – | 6866 | 3.75e5
smp-30 (Senescence marker protein-30) | 1 | – | – | – | 6516 | 3.52e5
CG1324 | 1 | – | – | – | 8129 | 4.71e5
CG13062 | 1 | – | – | – | 6890 | 3.80e5
CG14313 | 1 | – | – | – | 8782 | 3.95e5
Ctr9 | 1 | – | – | reporter ratio lowered past the hit cutoff (active) | 5352 | 2.26e5
az2 | 1 | – | – | – | 24424 | 2.08e6
CG4592 | 1 | – | – | – | 11010 | 1.23e6
Nf-YC (Nuclear factor Y-box C) | 1 | – | reporter ratio raised past the hit cutoff | – | 3967 | 1.34e5
Nf-YC (Nuclear factor Y-box C) | 2 | – | – | – | 3107 | 2.91e5
CG13404 | 1 | – | – | – | 6814 | 5.85e5
CG30122 | 1 | – | – | – | 10772 | 2.85e5
CG30122 | 2 | – | – | – | 8793 | 3.22e5
Drs (Drosomycin) | 1 | – | – | – | 5896 | 3.26e5
aurB (aurora B) | 1 | – | – | – | 5383 | 5.37e5
aurB (aurora B) | 2 | – | – | – | 5338 | 3.33e5
pain (painless) | 1 | – | – | – | 6116 | 3.40e5
Rok (Rho kinase) | 1 | – | – | – | 7599 | 5.38e5
Rok (Rho kinase) | 2 | – | – | – | 4060 | 3.79e5
Ama (Amalgam) | 1 | – | – | – | 7599 | 3.97e5
UbcE2M (NEDD8-conjugating enzyme UbcE2M) | 1 | – | – | – | 8889 | 5.98e5
CG15464 (retired record) | 1 | – | – | – | 4560 | 4.58e5
CG15464 (retired record) | 2 | – | – | – | 9800 | 6.34e5
Pop4 (POP4 ribonuclease P/MRP subunit) | 1 | – | – | – | 5275 | 2.89e5
l(3)mbn (lethal (3) malignant blood neoplasm) | 1 | – | – | – | 5167 | 4.28e5
CG10750 | 1 | – | – | – | 2.80e5 | 1.50e6
CG33218 (retired record) | 1 | – | – | – | 4655 | 4.23e5
Rbf2 (Retinoblastoma-family protein 2) | 1 | – | – | – | 7597 | 3.57e5
CG15332 | 1 | – | – | – | 5084 | 3.15e5
Non1 (Novel nucleolar protein 1) | 1 | – | – | – | 8624 | 4.11e5
CG15571 | 1 | – | – | – | 4867 | 2.61e5
levy | 1 | – | – | – | 5159 | 4.86e5
karr | 1 | – | – | – | 6426 | 4.88e5
Crys (Crystallin) | 1 | – | – | – | 26797 | 4.38e5
CG13077 | 1 | – | – | – | 6566 | 3.88e5
CG44774 | 1 | – | – | – | 6547 | 3.15e5
CG16854 | 1 | – | – | – | 7580 | 3.06e5
wapl (wings apart-like) | 1 | – | – | – | 8133 | 4.84e5
wisp (wispy) | 1 | – | – | – | 8269 | 3.26e5
wisp (wispy) | 2 | – | – | – | 2692 | 2.79e5
Atpalpha (Na pump alpha subunit) | 1 | – | – | – | 9033 | 3.12e5
CG17196 | 1 | – | – | – | 7630 | 4.17e5
14-3-3zeta | 1 | – | – | reporter ratio raised past the hit cutoff | 8236 | 5.36e5
Prosbeta4 (Proteasome beta4 subunit) | 1 | -3 (active) | reporter ratio raised past the hit cutoff | – | 9306 | 2.83e5
CG31122 | 1 | – | – | – | 4787 | 2.86e5
CG31122 | 2 | – | – | – | 7030 | 2.45e5
Inx7 + cm | 1 | – | – | – | 6774 | 3.29e5
Aldh (Aldehyde dehydrogenase) | 1 | – | – | – | 6719 | 3.71e5
